# Measurements taken from paper PMC9956223, “In Vitro Inhibitory Effects of Polyphenols from Flos sophorae immaturus on α-Glucosidase: Action Mechanism, Isothermal Titration Calorimetry and Molecular Docking Analysis” (Foods, 2023).
# Key:
# α-glucosidase (Yeast) [1] = experiment: Fluorescence quenching (Stern–Volmer) and thermodynamic parameters; format: binding; details: for fluorescence burst (quenching) mechanism: Stern–Volmer plots; for ΔH: from Kb at 298, 303, 310 K
# Method: An equal volume of polyphenol solution (0.02 mg/mL) was added to 3 mL of α-glucosidase solution (0.05 mg/mL) in 9 separate additions of 10 μL each. The mixture was shaken and then placed in a warm bath at 37 °C for 15 min. The system was scanned for fluorescence at three temperatures (298 K, 303 K, 310 K) using an F-7000 fluorescence spectrometer (Hitachi, Tokyo, Japan) at an excitation wavelength of 280 nm and excitation and emission slits of 5 nm. The fluorescence was scanned in the range of 310–500 nm and the corresponding blank control fluorescence spectra were subtracted to calculate the fluorescence. The Stern–Volmer equation was used to calculate the fluorescence burst constants and determine the type of burst.
# Therefore, the spontaneity and binding force of their interactions can be studied by calculating thermodynamic parameters. The values of the free energy change (ΔG), enthalpy change (ΔH) and entropy change (ΔS) can be calculated by Equations (5) and (6). (5) ΔG=[…]=ΔH−TΔS (6) lnKb2/Kb1=[…]ΔH×1/R where R = 8.314 J/(mol·K).
# α-glucosidase (Yeast) [2] = experiment: Isothermal titration calorimetry; format: binding; details: ITC, 25 °C
SMILES,n (binding sites) (α-glucosidase (Yeast) [1]; 298 K),ΔG (α-glucosidase (Yeast) [1]; 298 K) [kcal/mol],ΔS (α-glucosidase (Yeast) [1]; 298 K) [J mol^−1 K^−1],n (binding sites) (α-glucosidase (Yeast) [1]; 303 K),ΔG (α-glucosidase (Yeast) [1]; 303 K) [kcal/mol],ΔS (α-glucosidase (Yeast) [1]; 303 K) [J mol^−1 K^−1],n (binding sites) (α-glucosidase (Yeast) [1]; 310 K),ΔG (α-glucosidase (Yeast) [1]; 310 K) [kcal/mol],ΔS (α-glucosidase (Yeast) [1]; 310 K) [J mol^−1 K^−1],fluorescence burst (quenching) mechanism (α-glucosidase (Yeast) [1]),ΔH (α-glucosidase (Yeast) [1]) [kcal/mol],binding process (heat) (α-glucosidase (Yeast) [2]),n (binding stoichiometry) (α-glucosidase (Yeast) [2]),ΔS (α-glucosidase (Yeast) [2]) [cal/mol/K],ΔS (α-glucosidase (Yeast) [2]; listed as RU) [cal/mol/K],ΔH (α-glucosidase (Yeast) [2]) [kcal/mol]
"O=c1c(O)c(-c2ccc(O)cc2)oc2cc(O)cc(O)c12 [Kaempferol, kaempferol]",1.67,-16.57,208.92,1.83,-16.4,203.15,1.86,-16.55,200.53,static bursts,-4.419,exothermic,1.05,97.5,,
C[C@@H]1O[C@@H](OC[C@H]2O[C@@H](Oc3c(-c4ccc(O)c(O)c4)oc4cc(O)cc(O)c4c3=O)[C@H](O)[C@@H](O)[C@@H]2O)[C@H](O)[C@H](O)[C@H]1O [Rutin],1.72,-0.571,31.72,1.71,-0.315,27.70,1.71,-0.318,27.08,static bursts,6.807,heat-absorbing,,,430,
"C[C@@H]1O[C@@H](Oc2c(-c3ccc(O)c(O)c3)oc3cc(O)cc(O)c3c2=O)[C@H](O)[C@H](O)[C@H]1O [Quercitrin, quercitrin]",1.72,-14.63,181.73,1.71,-14.27,176.69,1.71,-14.27,176.58,static bursts,-9.632,exothermic,2.36,487,,
"O=c1c(O[C@@H]2O[C@H](CO)[C@H](O)[C@H](O)[C@H]2O)c(-c2ccc(O)c(O)c2)oc2cc(O)cc(O)c12 [Hyperoside, hyperoside]",1.91,-1.79,1.41,1.57,-1.29,5.48,1.80,-1.68,0.09,static bursts,1.93,heat-absorbing,0.5,4380,,1.3e+06 ± 510600
"O=c1c(O)c(-c2ccc(O)c(O)c2)oc2cc(O)cc(O)c12 [Quercetin, quercetin]",2.30,-1.07,8.75,2.35,-1.11,8.01,2.34,-1.18,6.87,static bursts,-1.28,exothermic,2.04,129,,
